Measurements taken from article PMC9943661.
The exact form of at least one protein or probe is not confirmed. For some of these results: Negatives hold for the conditions tested. For some of these results: Weaker means in comparison with the reference protein, sequence or condition of that experiment. For some of these results: Where cells or extracts were used, other partners may take part. For some of these results: At least one verdict was read from the data and is not stated in words by the source. For some of these results: Tags and fusion partners may be left off the protein sequences shown.

Tests used:
[1] = molecular target: SMAD2 (nuclear extract) (Homo sapiens (hSAEC)) (UniProt Q15796); assay: EMSA supershift; settings: anti-SMAD2, 10 mM HEPES pH 7.9, 10 mM KCl, 1.5 mM MgCl2, 1 mM DTT, 5% glycerol, 20 nM Cy5-DNA, on ice, 6% PAGE at 4 C, protein in an extract, label: 5'-Cy5 on strand 1
[2] = molecular target: T1, SMAD4 (nuclear extract) (Homo sapiens (hSAEC)) (UniProt Q13485); assay: EMSA supershift; settings: anti-SMAD4, 10 mM HEPES pH 7.9, 10 mM KCl, 1.5 mM MgCl2, 1 mM DTT, 5% glycerol, 20 nM Cy5-DNA, on ice, 6% PAGE at 4 C, protein in an extract, label: 5'-Cy5 on strand 1
T1 sequence (looked up, limits assumed): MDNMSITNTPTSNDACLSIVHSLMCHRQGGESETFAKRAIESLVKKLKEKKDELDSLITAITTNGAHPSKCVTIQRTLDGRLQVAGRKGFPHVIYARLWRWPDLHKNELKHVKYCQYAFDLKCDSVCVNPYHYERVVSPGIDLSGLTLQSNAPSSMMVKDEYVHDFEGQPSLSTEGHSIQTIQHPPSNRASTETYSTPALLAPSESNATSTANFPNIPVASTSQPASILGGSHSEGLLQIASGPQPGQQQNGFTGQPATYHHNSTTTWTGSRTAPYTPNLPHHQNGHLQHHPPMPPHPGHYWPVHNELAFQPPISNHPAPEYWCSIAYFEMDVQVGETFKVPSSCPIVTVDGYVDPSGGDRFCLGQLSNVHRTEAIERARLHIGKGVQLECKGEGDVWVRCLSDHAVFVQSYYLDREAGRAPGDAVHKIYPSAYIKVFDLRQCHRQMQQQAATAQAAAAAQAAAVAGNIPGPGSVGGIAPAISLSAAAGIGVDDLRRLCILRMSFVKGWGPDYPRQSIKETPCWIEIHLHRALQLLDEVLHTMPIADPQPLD

[3] = molecular target: SMAD3 (nuclear extract) (Homo sapiens (hSAEC)) (UniProt P84022); assay: EMSA supershift; settings: anti-SMAD3, 10 mM HEPES pH 7.9, 10 mM KCl, 1.5 mM MgCl2, 1 mM DTT, 5% glycerol, 20 nM Cy5-DNA, on ice, 6% PAGE at 4 C, protein in an extract, label: 5'-Cy5 on strand 1
[4] = molecular target: OGG1 (nuclear extract) (Homo sapiens (hSAEC)) (UniProt O15527); assay: EMSA supershift; settings: 10 mM HEPES pH 7.9, 10 mM KCl, 1.5 mM MgCl2, 1 mM DTT, 5% glycerol, 20 nM Cy5-DNA, on ice, 6% PAGE at 4 C, protein in an extract, label: 5'-Cy5 on strand 1
UDG = assay: EMSA; settings: 100 nM UDG; 8-oxoG at strand 2 position 43 from its 5' end (opposite strand 1 position 15); 10 mM HEPES pH 7.9, 10 mM KCl, 1.5 mM MgCl2, 1 mM DTT, 5% glycerol, 20 nM Cy5-DNA, on ice; 6% PAGE at 4 C; recombinant protein; label: 5'-Cy5 on strand 1
SMAD3 = SMAD3 (UniProt P84022); assay: EMSA; settings: 8-oxoG at strand 2 position 43 from its 5' end (opposite strand 1 position 15), 10 mM HEPES pH 7.9, 10 mM KCl, 1.5 mM MgCl2, 1 mM DTT, 5% glycerol, 20 nM Cy5-DNA, on ice, 6% PAGE at 4 C, recombinant protein, residues 1-425, label: 5'-Cy5 on strand 1
NEIL2 = assay: EMSA; settings: 100 nM NEIL2; 8-oxoG at strand 2 position 43 from its 5' end (opposite strand 1 position 15); 10 mM HEPES pH 7.9, 10 mM KCl, 1.5 mM MgCl2, 1 mM DTT, 5% glycerol, 20 nM Cy5-DNA, on ice; 6% PAGE at 4 C; recombinant protein; label: 5'-Cy5 on strand 1
MTH1 = assay: EMSA; settings: 100 nM MTH1; 8-oxoG at strand 2 position 43 from its 5' end (opposite strand 1 position 15); 10 mM HEPES pH 7.9, 10 mM KCl, 1.5 mM MgCl2, 1 mM DTT, 5% glycerol, 20 nM Cy5-DNA, on ice; 6% PAGE at 4 C; recombinant protein; label: 5'-Cy5 on strand 1
[5] = 8-oxoG at strand 2 position 43 from its 5' end (opposite strand 1 position 15)

Row | Sequence | binding result [1] | binding result [2] | binding result [3] | binding result ([4]; anti-OGG1, via protein-protein interaction) | binding result [1, 5] | binding result [2, 5] | binding result [3, 5] | binding result ([4]; anti-OGG1, 8-oxoG at strand 2 position 43 from its 5' end (opposite strand 1 position 15)) | binding result (UDG) | binding result (SMAD3; OGG1 + SU0268) | binding result (SMAD3; OGG1 + TH5487) | binding result (NEIL2) | binding result (MTH1)
1 | CCCCAGGGTGAGCCCAGCTCAGACTATCATCCGGAAAGCCCCCAAAAGTCCCAGCCC (double strand) | binds | binds | binds | binds |  |  |  |  |  |  |  |  | 
2 | CCCCAGGGTGAGCCCAGCTCAGACTATCATCCGGAAAGCCCCCAAAAGTCCCAGCCC (double strand) [G'3] |  |  |  |  | binds | binds | binds | binds | no binding | binds more weakly | binds more weakly | no binding | no binding
